By UniProt entry, the sequences of proteins in these tests, tags left out. Residues count along the entry.
UniProt H0VZC5, 1-426: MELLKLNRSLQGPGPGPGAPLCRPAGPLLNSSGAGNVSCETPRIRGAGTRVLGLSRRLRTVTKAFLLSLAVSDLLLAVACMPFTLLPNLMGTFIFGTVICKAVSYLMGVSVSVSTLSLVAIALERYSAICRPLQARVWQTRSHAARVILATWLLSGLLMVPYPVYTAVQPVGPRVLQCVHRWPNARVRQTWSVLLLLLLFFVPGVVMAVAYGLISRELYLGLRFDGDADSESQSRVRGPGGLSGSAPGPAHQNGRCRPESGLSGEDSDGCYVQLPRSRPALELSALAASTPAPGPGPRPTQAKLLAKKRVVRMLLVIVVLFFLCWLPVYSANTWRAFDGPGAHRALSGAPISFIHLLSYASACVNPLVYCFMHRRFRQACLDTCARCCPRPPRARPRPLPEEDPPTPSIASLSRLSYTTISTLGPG
UniProt P30551, whole entry: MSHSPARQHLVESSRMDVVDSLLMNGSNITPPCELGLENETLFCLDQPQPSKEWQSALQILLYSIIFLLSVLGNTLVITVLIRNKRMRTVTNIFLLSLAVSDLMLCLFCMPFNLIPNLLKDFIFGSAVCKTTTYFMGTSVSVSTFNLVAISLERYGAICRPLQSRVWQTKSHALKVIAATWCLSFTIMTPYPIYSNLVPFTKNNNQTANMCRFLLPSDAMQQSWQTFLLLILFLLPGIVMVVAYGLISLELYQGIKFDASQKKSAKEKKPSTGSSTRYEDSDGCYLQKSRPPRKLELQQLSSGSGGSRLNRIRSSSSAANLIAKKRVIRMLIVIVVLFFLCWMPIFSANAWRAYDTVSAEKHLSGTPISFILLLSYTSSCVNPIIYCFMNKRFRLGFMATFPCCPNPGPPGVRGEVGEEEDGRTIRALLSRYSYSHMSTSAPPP

In patent US20070185094A1, “Novel 3-substitued-1,4-benzodiazepines” (ASTON UNIVERSITY, priority 2003, published 2007):

Key:
[1] = target: CCKB receptor (Cavia porcellus, UniProt H0VZC5); test: 125I-CCK-8 receptor binding assay, CCKB (guinea pig cerebral cortex)
Protocol: CCKA and CCKB receptor binding assays were performed, by using guinea pig cerebral cortex (CCKB) or rat pancreas (CCKA). […]. J. Pharmacol., 269, 249-254]. Pancreatic membranes were prepared in a similar way but by Charpentier et al [(1988), Cyclic cholecystokinin analogues with high selectivity for central receptors., Proc Natl Acad Sci USA, 85, 1968-1972]. The […] CCK binding assay: Tissues were homogenised in ice cold sucrose (0.32 M, 25 ml) for 15 strokes at 500 rpm and centrifuged at 13000 rpm for 10 mins. The supernatant was re-centrifuged at 13000 rpm for 20 mins. The resulting pellet was re-dispersed to the required volume of buffer at 500 rpm and stored in aliquots at […].
The samples were incubated {with membranes (0.1 mg/ml)} in 20 mM Hepes, 1 mM EGTA, 5 mM MgCl2, 150 mm NaCl, 0.25 mg/ml bacitracin at pH 6.5 for 2 hrs at RT and then […] by centrifugation at 1100 rpm for 5 minutes. The membrane pellets were washed twice with water and the bound radioactivity was measured in a Packard Cobra Auto-gamma counter (B5005). All binding assays were carried out with L-363, 260 as an internal non-specific standard. Controls (no compound) were also added. All samples were made in duplicate and repeated twice. All compounds were initially screened for percentage inhibition at 20 μM. Samples showing an average inhibition of <35% were diluted to 2 μM and re-screened and if active diluted again.

[2] = target: CCKA receptor (Rattus norvegicus, UniProt P30551); test: 125I-CCK-8 receptor binding assay, CCKA (rat pancreas); conditions: Table 3; for IC50: read-out: IC50 CCKA; for Ratio CCKB:CCKA: ratio of IC50 values

| SMILES | IC50 ([1]; read-out: CCKB IC50, Table 1) [µM] | IC50 ([1]; read-out: IC50 CCKB, Table 3) [µM] | IC50 [2] [µM] | Ratio CCKB:CCKA [2] |
| --- | --- | --- | --- | --- |
| O=C1Nc2ccc(Cl)cc2C(c2ccccc2)=NC1N(Cc1ccccc1)Cc1ccccc1 (stereo not drawn) | 0.26 |  |  |  |
| O=C1Nc2ccc(Cl)cc2C(c2ccccc2)=NC1Nc1ccc(Cl)cc1 (stereo not drawn) |  | 2.9 | ≥ 20 |  |
| Cc1ccccc1NC1N=C(c2ccccc2)c2cc(Cl)ccc2NC1=O (stereo not drawn) |  | 7.1 | 10 | +113 |
| Cc1ccc(C)c(NC2N=C(c3ccccc3)c3cc(Cl)ccc3NC2=O)c1 (stereo not drawn) |  | 6 | 1 | 6 |

Where two headings read alike, the source gives them in different places. The match of structure and compound is tentative.
